Results are given in words; binding and its absence hold for the method and conditions named. Binding seen in cells or lysates may run through a third protein. Some entries that bind do so weakly or less than the wild type.
Molecular target: Glycoprotein 130 (IL-6 β receptor) (human (endogenous in HT-29)) (UniProt P40189)
Test: co-IP; endogenous proteins of HT-29 cells, with or without 5 mM NaB for 24 h; lysed in NP-40 buffer; primary antibodies on protein G agarose beads overnight at 4 °C; western blot

Chains of the proteins cited; added tags and fusions are not shown. Residues count along the entry.
UniProt P40189, residues 23-918: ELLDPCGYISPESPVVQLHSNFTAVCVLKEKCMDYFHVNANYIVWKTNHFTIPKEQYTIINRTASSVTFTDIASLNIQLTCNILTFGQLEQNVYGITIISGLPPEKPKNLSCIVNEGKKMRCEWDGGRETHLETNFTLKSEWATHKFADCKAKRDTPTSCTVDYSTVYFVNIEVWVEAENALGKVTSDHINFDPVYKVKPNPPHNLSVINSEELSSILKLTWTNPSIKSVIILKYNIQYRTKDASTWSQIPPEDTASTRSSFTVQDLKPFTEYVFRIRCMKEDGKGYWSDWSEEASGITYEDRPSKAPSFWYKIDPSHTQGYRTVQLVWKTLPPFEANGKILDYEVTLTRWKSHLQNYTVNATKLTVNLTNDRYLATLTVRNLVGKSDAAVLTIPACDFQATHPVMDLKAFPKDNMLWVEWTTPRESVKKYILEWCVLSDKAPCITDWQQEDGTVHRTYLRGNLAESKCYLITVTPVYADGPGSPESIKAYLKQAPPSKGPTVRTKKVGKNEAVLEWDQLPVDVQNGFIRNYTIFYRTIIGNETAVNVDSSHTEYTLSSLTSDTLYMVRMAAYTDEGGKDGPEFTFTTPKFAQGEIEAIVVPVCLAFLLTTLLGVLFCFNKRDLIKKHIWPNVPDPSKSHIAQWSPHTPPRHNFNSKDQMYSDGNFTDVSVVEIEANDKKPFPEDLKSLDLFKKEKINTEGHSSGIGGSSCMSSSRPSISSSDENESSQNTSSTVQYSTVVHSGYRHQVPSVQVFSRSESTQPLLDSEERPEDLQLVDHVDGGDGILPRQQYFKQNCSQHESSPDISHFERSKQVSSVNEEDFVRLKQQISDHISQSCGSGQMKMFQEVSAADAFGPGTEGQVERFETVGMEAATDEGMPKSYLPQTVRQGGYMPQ
UniProt O00463: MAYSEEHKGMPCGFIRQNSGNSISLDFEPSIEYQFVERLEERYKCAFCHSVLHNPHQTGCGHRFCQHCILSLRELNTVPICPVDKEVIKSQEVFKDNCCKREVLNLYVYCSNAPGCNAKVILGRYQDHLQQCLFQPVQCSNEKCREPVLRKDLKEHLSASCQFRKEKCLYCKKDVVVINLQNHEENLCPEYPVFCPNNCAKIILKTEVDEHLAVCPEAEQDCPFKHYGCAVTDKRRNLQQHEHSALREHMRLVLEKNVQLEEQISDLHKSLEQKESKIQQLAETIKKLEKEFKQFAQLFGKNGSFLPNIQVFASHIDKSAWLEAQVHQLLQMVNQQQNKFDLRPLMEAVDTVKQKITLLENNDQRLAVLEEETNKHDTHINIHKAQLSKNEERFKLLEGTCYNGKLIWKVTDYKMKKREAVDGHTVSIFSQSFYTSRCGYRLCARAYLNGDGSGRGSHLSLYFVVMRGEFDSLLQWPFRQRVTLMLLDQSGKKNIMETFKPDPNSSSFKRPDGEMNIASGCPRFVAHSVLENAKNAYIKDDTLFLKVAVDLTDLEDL

binding: binds
Substance: Tumor necrosis factor receptor-associated factor 5 (from UniProt O00463 1-557)

Source: PMC7271451
